Measured values as given in the supplement of paper PMC12823440, “Inhibitors supercharge kinase turnover through native proteolytic circuits” (Nature, 2025).
Structures can show the parent of a compound that is named as a salt. Some of the results follow. The calls rarely recur for the same compound in another form.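 Kinases, fused to nanoluciferase, were expressed in K562 cells; luminescence was measured every 4 h from 2 to 18 h as percent of control (DMSO = 100%, positive control = 0%). A time point is decreased if signal falls significantly (2 sigma). Hits were called by the authors by a rule that is not shown; the count of time points alone does not decide it.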

The chains behind the UniProt entries cited, without tags or fusion partners. Where a name states a change or a piece, a line headed by the entry shows the natural chain unless it says otherwise.
UniProt P31749: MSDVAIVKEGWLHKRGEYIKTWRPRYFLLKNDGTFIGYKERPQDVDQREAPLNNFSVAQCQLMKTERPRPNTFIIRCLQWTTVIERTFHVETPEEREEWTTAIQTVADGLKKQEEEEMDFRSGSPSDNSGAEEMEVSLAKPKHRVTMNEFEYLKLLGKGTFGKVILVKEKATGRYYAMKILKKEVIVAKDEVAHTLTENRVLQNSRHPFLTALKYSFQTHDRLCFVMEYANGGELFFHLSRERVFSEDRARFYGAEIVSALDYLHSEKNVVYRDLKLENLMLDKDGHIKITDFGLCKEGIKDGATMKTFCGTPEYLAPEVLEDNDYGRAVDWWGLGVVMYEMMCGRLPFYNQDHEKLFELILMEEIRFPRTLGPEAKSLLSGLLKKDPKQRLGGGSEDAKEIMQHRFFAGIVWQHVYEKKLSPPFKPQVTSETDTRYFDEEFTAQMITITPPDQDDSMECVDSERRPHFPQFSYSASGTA
UniProt Q9UM73: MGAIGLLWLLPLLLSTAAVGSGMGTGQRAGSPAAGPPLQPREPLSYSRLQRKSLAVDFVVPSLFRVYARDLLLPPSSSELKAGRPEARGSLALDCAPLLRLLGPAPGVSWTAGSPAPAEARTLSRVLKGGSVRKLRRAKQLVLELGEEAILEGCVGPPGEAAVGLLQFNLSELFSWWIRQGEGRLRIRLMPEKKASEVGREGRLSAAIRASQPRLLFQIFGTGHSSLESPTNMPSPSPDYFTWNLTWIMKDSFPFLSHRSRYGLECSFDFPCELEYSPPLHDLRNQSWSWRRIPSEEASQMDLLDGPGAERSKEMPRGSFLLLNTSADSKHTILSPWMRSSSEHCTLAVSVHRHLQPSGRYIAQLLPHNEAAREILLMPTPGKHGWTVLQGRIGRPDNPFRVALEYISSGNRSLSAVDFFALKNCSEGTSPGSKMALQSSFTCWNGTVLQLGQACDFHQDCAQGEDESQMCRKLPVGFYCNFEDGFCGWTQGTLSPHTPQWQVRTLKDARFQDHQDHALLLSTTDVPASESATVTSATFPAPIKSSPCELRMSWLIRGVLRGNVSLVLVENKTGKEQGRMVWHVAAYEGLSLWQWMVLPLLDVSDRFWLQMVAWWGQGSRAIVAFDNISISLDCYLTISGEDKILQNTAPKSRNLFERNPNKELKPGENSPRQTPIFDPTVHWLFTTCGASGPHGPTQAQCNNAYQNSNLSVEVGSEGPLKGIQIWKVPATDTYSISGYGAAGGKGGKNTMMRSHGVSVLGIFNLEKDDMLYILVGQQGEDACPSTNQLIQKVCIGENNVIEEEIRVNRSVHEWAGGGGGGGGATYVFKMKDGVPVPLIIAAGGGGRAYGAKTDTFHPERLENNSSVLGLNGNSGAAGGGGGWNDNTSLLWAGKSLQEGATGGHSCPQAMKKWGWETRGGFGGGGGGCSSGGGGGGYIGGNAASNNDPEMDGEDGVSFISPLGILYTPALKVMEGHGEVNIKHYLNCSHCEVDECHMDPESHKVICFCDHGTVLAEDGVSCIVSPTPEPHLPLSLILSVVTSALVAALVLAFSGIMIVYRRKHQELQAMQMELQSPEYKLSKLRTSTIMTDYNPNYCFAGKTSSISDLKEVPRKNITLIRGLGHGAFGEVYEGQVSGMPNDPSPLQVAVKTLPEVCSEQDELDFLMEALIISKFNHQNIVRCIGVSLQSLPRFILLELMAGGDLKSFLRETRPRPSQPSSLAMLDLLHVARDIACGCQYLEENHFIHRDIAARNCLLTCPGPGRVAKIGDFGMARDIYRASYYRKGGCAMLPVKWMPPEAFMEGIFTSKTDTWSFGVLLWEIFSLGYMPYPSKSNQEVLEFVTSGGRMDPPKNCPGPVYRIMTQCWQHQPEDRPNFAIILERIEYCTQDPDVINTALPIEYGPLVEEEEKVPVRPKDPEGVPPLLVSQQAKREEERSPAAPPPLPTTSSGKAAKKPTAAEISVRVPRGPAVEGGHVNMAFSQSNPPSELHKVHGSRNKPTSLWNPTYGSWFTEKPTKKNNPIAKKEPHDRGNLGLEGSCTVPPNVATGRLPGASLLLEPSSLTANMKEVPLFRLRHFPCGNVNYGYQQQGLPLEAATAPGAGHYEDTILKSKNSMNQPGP
UniProt P10398: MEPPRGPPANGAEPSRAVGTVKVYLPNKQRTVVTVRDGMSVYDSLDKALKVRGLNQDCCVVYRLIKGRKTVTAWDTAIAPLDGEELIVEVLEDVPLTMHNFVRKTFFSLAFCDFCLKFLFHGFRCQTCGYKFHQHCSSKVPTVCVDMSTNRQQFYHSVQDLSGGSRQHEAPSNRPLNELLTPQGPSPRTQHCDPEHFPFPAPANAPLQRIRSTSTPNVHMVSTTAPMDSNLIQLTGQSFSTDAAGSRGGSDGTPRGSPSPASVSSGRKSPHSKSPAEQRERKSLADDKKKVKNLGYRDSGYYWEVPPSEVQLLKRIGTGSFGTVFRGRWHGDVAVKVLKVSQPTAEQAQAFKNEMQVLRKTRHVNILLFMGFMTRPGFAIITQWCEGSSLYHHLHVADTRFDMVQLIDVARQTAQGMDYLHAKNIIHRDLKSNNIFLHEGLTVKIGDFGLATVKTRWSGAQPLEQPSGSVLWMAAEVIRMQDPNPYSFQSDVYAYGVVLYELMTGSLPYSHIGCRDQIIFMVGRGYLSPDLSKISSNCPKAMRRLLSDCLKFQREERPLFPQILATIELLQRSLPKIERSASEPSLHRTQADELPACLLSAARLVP
UniProt O14965: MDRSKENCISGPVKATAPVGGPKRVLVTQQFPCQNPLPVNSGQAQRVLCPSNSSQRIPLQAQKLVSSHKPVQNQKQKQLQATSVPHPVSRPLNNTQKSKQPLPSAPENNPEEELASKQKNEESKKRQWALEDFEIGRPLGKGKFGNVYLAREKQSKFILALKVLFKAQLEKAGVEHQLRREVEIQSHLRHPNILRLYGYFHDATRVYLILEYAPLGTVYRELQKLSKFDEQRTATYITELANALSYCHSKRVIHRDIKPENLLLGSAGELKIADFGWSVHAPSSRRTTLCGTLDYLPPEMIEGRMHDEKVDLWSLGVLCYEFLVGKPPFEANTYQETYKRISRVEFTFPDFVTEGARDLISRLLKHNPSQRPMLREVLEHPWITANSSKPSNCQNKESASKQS
UniProt Q96GD4, whole entry: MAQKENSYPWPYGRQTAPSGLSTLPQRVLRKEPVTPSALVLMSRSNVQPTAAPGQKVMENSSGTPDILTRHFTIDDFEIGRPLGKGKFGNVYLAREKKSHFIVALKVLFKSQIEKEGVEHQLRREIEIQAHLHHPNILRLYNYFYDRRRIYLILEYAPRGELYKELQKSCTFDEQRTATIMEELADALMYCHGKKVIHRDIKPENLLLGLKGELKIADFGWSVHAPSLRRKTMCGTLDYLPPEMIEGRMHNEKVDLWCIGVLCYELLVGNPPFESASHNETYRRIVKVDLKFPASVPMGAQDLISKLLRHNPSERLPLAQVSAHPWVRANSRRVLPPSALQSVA
UniProt Q9UQB9: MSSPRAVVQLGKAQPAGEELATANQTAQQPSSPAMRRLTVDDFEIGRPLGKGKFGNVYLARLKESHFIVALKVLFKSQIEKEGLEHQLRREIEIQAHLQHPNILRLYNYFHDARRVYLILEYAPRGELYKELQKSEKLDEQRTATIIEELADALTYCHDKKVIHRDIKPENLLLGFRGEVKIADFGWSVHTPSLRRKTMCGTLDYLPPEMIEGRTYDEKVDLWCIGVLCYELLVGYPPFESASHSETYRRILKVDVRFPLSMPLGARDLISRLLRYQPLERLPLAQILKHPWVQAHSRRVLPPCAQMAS
UniProt P51451: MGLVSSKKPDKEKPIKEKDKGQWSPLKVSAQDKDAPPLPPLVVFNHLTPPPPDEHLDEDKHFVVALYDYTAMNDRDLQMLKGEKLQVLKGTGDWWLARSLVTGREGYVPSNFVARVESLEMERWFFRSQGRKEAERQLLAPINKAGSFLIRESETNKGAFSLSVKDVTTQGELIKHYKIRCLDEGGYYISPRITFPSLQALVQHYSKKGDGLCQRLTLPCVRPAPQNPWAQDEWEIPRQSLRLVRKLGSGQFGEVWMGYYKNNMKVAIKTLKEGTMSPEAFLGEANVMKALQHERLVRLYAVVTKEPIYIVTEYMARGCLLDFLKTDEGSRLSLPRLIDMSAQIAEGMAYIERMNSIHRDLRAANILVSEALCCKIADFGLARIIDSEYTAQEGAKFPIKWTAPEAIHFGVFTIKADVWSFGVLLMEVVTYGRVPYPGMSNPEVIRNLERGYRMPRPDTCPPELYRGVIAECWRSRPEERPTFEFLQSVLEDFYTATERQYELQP
UniProt P51813: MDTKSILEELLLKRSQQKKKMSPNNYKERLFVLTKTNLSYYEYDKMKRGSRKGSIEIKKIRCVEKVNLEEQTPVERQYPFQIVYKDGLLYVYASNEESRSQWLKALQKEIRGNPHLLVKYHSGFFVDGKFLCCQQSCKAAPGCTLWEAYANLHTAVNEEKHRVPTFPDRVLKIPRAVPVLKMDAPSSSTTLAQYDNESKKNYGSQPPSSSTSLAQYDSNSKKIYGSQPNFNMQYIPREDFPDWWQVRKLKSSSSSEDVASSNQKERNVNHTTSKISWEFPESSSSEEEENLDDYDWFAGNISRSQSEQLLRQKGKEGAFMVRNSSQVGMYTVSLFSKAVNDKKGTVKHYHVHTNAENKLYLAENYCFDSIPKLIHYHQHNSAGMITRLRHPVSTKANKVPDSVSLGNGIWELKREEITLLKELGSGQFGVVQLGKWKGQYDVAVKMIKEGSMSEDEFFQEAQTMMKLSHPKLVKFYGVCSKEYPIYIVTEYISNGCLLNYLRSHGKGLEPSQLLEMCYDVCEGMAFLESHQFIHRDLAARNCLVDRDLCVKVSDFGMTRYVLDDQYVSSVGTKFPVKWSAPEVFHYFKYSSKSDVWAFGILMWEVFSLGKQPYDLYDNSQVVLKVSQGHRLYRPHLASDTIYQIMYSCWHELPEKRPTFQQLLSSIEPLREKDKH
UniProt P15056, whole entry, looked up: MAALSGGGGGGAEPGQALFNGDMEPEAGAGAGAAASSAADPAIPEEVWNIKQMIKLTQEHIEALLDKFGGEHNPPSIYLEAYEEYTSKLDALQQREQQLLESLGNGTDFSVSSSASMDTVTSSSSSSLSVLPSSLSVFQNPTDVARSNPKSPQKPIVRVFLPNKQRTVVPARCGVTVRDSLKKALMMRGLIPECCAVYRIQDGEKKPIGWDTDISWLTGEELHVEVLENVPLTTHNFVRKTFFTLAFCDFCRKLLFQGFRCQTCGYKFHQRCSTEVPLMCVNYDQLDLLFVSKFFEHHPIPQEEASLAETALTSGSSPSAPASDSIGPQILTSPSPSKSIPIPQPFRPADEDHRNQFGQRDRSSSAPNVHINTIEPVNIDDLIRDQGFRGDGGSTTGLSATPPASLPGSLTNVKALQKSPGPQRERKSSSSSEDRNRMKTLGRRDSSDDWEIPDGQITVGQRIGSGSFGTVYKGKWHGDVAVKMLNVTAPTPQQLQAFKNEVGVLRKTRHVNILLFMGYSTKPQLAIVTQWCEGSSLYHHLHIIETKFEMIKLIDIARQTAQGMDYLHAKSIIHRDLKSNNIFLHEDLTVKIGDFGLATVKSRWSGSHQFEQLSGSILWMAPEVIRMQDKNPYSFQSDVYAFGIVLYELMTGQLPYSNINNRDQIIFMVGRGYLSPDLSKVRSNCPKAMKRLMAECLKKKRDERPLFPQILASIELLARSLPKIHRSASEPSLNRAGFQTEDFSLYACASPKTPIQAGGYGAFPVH

What was measured:
Assay in all cases: kinase-Nluc reporter destabilization hit call (1 = scored as downregulated) (binary); higher = compound decreases kinase abundance
Details in all cases: K562, 2-18 h
[1] = target: ABL1 (UniProt P00519)
[2] = target: AKT1 (UniProt P31749)
[3] = target: ALK (UniProt Q9UM73)
[4] = target: ARAF (UniProt P10398)
[5] = target: AURKA (UniProt O14965)
[6] = target: AURKB (UniProt Q96GD4)
[7] = target: AURKC (UniProt Q9UQB9)
[8] = target: BLK (UniProt P51451)
[9] = target: BMX (UniProt P51813)
[10] = target: BRAF (UniProt P15056)

Structure (SMILES)	kinase-Nluc reporter destabilization hit call ([1]; 10 µM)	kinase-Nluc reporter destabilization hit call ([2]; 10 µM)	kinase-Nluc reporter destabilization hit call ([3]; 10 µM)	kinase-Nluc reporter destabilization hit call ([4]; 10 µM)	kinase-Nluc reporter destabilization hit call ([5]; 10 µM)	kinase-Nluc reporter destabilization hit call ([6]; 10 µM)	kinase-Nluc reporter destabilization hit call ([7]; 10 µM)	kinase-Nluc reporter destabilization hit call ([8]; 10 µM)	kinase-Nluc reporter destabilization hit call ([9]; 10 µM)	kinase-Nluc reporter destabilization hit call ([10]; 10 µM)	kinase-Nluc reporter destabilization hit call ([1]; 2.5 µM)	kinase-Nluc reporter destabilization hit call ([2]; 2.5 µM)	kinase-Nluc reporter destabilization hit call ([3]; 2.5 µM)	kinase-Nluc reporter destabilization hit call ([4]; 2.5 µM)	kinase-Nluc reporter destabilization hit call ([5]; 2.5 µM)	kinase-Nluc reporter destabilization hit call ([6]; 2.5 µM)	kinase-Nluc reporter destabilization hit call ([7]; 2.5 µM)	kinase-Nluc reporter destabilization hit call ([8]; 2.5 µM)	kinase-Nluc reporter destabilization hit call ([9]; 2.5 µM)	kinase-Nluc reporter destabilization hit call ([10]; 2.5 µM)
COc1ncc(F)cc1CNc1ccc(Cc2c[nH]c3ncc(C)cc23)c(F)n1 [PLX5622 (hemifumarate)]	inactive: 0	inactive: 0	inactive: 0	inactive: 0	inactive: 0	inactive: 0	inactive: 0	inactive: 0	inactive: 0	inactive: 0	–	–	–	–	–	–	–	–	–	–
Nc1cncc(-c2cn3ccnc3c(Nc3ccc(N4CCN(C5COC5)CC4)cc3)n2)n1 [Lanraplenib (succinate)]	inactive: 0	inactive: 0	inactive: 0	inactive: 0	inactive: 0	inactive: 0	inactive: 0	inactive: 0	inactive: 0	inactive: 0	–	–	–	–	–	–	–	–	–	–
CC(=O)Nc1cccc(-n2c(=O)n(C3CC3)c(=O)c3c(Nc4ccc(I)cc4F)n(C)c(=O)c(C)c32)c1 [Trametinib (DMSO solvate)]	inactive: 0	inactive: 0	inactive: 0	inactive: 0	inactive: 0	inactive: 0	inactive: 0	inactive: 0	inactive: 0	inactive: 0	–	–	–	–	–	–	–	–	–	–
COc1ccc(S(=O)(=O)Nc2ccccc2CN(C)C/C=C/c2ccc(Cl)cc2)cc1 [KN-92 (hydrochloride)]	–	–	–	–	–	–	–	–	–	–	inactive: 0	inactive: 0	inactive: 0	inactive: 0	inactive: 0	inactive: 0	inactive: 0	inactive: 0	inactive: 0	inactive: 0
N#CCNC(=O)c1ccc(-c2ccnc(Nc3ccc(N4CCOCC4)cc3)n2)cc1 [Momelotinib]	inactive: 0	inactive: 0	inactive: 0	inactive: 0	inactive: 0	inactive: 0	inactive: 0	inactive: 0	inactive: 0	inactive: 0	–	–	–	–	–	–	–	–	–	–
CNC(=O)c1cc(Oc2ccc(NC(=O)Nc3ccc(Cl)c(C(F)(F)F)c3)c(F)c2)ccn1 [Regorafenib]	–	–	–	–	–	–	–	–	–	–	inactive: 0	inactive: 0	inactive: 0	inactive: 0	inactive: 0	inactive: 0	inactive: 0	inactive: 0	inactive: 0	inactive: 0
C=CC(=O)Nc1cc(Nc2nccc(-c3cn(C)c4ccccc34)n2)c(OC)cc1N(C)CCN(C)C [Osimertinib (dimesylate)]	–	–	–	–	–	–	–	–	–	–	inactive: 0	inactive: 0	inactive: 0	inactive: 0	inactive: 0	inactive: 0	inactive: 0	inactive: 0	inactive: 0	inactive: 0
CN(C)C(=O)c1cc2cnc(Nc3ccc(N4CCNCC4)cn3)nc2n1C1CCCC1 [Ribociclib]	inactive: 0	inactive: 0	inactive: 0	inactive: 0	inactive: 0	inactive: 0	inactive: 0	inactive: 0	inactive: 0	inactive: 0	–	–	–	–	–	–	–	–	–	–
CCS(=O)(=O)N1CC(CC#N)(n2cc(-c3ncnc4[nH]ccc34)cn2)C1 [Baricitinib (phosphate)]	inactive: 0	inactive: 0	inactive: 0	inactive: 0	inactive: 0	inactive: 0	inactive: 0	inactive: 0	inactive: 0	inactive: 0	–	–	–	–	–	–	–	–	–	–
CS(=O)(=O)N1CCN(Cc2cc3nc(-c4cccc5[nH]ncc45)nc(N4CCOCC4)c3s2)CC1 [Pictilisib]	inactive: 0	inactive: 0	inactive: 0	inactive: 0	inactive: 0	inactive: 0	inactive: 0	inactive: 0	inactive: 0	inactive: 0	–	–	–	–	–	–	–	–	–	–
COc1cc(/C=C/C(=O)O)ccc1O [Ferulic acid]	inactive: 0	inactive: 0	inactive: 0	inactive: 0	inactive: 0	inactive: 0	inactive: 0	inactive: 0	inactive: 0	inactive: 0	–	–	–	–	–	–	–	–	–	–
O=C(Nc1ccncc1)Nc1ccc(-c2nc(N3CCOCC3)nc(N3C4CCC3COC4)n2)cc1 [PKI-179 (hydrochloride)]	–	–	–	–	–	–	–	–	–	–	active: 1	inactive: 0	inactive: 0	inactive: 0	inactive: 0	inactive: 0	inactive: 0	inactive: 0	inactive: 0	inactive: 0

Whole records, looked up by structure. Order of values: kinase-Nluc reporter destabilization hit call ([1]; 10 µM) | kinase-Nluc reporter destabilization hit call ([2]; 10 µM) | kinase-Nluc reporter destabilization hit call ([3]; 10 µM) | kinase-Nluc reporter destabilization hit call ([4]; 10 µM) | kinase-Nluc reporter destabilization hit call ([5]; 10 µM) | kinase-Nluc reporter destabilization hit call ([6]; 10 µM) | kinase-Nluc reporter destabilization hit call ([7]; 10 µM) | kinase-Nluc reporter destabilization hit call ([8]; 10 µM) | kinase-Nluc reporter destabilization hit call ([9]; 10 µM) | kinase-Nluc reporter destabilization hit call ([10]; 10 µM) | kinase-Nluc reporter destabilization hit call ([1]; 2.5 µM) | kinase-Nluc reporter destabilization hit call ([2]; 2.5 µM) | kinase-Nluc reporter destabilization hit call ([3]; 2.5 µM) | kinase-Nluc reporter destabilization hit call ([4]; 2.5 µM) | kinase-Nluc reporter destabilization hit call ([5]; 2.5 µM) | kinase-Nluc reporter destabilization hit call ([6]; 2.5 µM) | kinase-Nluc reporter destabilization hit call ([7]; 2.5 µM) | kinase-Nluc reporter destabilization hit call ([8]; 2.5 µM) | kinase-Nluc reporter destabilization hit call ([9]; 2.5 µM) | kinase-Nluc reporter destabilization hit call ([10]; 2.5 µM)
`COc1cc(/C=C/C(=O)O)ccc1O` [Ferulic acid] reads inactive: 0 | inactive: 0 | inactive: 0 | inactive: 0 | inactive: 0 | inactive: 0 | inactive: 0 | inactive: 0 | inactive: 0 | inactive: 0 | – | – | – | – | – | – | – | – | – | –
`CN(C)C(=O)c1cc2cnc(Nc3ccc(N4CCNCC4)cn3)nc2n1C1CCCC1` [Ribociclib] reads inactive: 0 | inactive: 0 | inactive: 0 | inactive: 0 | inactive: 0 | inactive: 0 | inactive: 0 | inactive: 0 | inactive: 0 | inactive: 0 | – | – | – | – | – | – | – | – | – | –
